Among the data in article PMC5986788, “Succinate induces aberrant mitochondrial fission in cardiomyocytes through GPR91 signaling” (Cell Death & Disease, 2018) are binding values, retold here.

Sequences of proteins named here, by UniProt entry; tags and fusion partners are left off.
UniProt Q8K1M6: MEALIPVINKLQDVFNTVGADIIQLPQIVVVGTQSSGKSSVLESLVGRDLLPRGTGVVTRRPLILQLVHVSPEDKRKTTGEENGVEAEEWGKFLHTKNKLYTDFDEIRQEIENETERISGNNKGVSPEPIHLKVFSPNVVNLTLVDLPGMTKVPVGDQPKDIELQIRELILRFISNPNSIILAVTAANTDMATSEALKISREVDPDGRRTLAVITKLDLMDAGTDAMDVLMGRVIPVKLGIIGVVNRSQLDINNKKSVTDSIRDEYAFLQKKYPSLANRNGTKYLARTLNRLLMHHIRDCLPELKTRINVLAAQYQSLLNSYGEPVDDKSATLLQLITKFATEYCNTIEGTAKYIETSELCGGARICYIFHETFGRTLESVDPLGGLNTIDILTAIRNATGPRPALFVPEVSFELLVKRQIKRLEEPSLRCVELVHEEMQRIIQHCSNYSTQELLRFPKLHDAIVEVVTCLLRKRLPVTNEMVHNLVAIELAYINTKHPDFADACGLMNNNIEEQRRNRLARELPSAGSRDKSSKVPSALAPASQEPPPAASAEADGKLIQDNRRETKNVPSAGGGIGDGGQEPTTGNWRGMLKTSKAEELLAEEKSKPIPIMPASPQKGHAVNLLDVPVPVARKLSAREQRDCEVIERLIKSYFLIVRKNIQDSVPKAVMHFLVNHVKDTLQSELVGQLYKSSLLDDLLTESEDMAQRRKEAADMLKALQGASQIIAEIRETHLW

These are yes or no findings as the source states them, for the method shown. Binding seen in cells or lysates may run through a third protein. Some binding calls cover weakened binding; strength is not graded here.

This assay deals with T1, mitochondrial fission factor (MFF), mouse (mouse (endogenous in heart tissue)) (UniProt Q6PCP5).
T1 sequence: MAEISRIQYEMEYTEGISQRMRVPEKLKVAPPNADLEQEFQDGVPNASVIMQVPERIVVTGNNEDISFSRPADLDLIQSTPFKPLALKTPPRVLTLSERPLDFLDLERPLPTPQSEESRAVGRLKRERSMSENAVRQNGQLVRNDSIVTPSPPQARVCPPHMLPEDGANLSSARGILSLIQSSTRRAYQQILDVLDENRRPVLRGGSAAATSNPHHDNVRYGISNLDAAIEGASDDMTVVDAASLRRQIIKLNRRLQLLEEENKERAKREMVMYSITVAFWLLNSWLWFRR
As to the kind of experiment: co-IP; endogenous proteins in mouse cardiac tissue lysate; anti-Drp1 or anti-MFF antibody overnight at 4 °C, protein A+G agarose 2 h, western blot; mice given isoproterenol with or without dimethyl malonate. For orientation: Immunoblotting shows a protein as a band on a membrane.

Consider “dynamin-related protein 1 (Drp1), mouse (from UniProt Q8K1M6 1-736)”, for which the binding result is recorded as “binds”.
